Reference: the odorant receptor screen of Mainland et al. (2015)
“And” between values parts separate entries of the source, which are not always exact repeats. Identical values can stand only once. This is one part of the list. Single wells; the ratio to wells without odorant was worked out here, and repeats agree poorly.

The compounds below were run on OR1E1 clone 1546 (assay: odorant receptor activation (CRE luciferase / Renilla) (fold of no-odor wells); higher = more activation). Conditions: 100 µM.

Structure (SMILES)	odorant receptor activation
CC=Cc1ccc(O)c(OC)c1 [isoeugenol]	1.29 and 2.12
O=C1CCCCCCCCCCCCCCO1 [pentadecalactone]	0.843
CCCCCCC=O [heptaldehyde]	1.25 and 1.15
CC12CCC(CC1)C(C)(C)O2 [cineole]	0.686
C=CCSCC=C [diallyl sulfide]	1.25
CC(=O)OC1CC2CCC1(C)C2(C)C (configuration not stated) [isobornyl acetate]	1.02 and 1.06
COC(=O)c1ccccc1O [methyl salicylate]	1
C=CC(C)(O)CCC=C(C)C (configuration not stated) [linalool]	0.857
C=CCc1ccc(OC(C)=O)c(OC)c1 [eugenol acetate]	1.71
CC12C=CCC1C1CCC3CC(=O)CCC3(C)C1CC2 (configuration not stated) [androstenone]	1.07
CC12C=CCC1C1CCC3=CC(=O)CCC3(C)C1CC2 (configuration not stated) [androstadienone]	1.06 and 1.55
CC(C)(C)c1ccc(CCC=O)cc1 [bourgeonal]	0.639
CCCCCCOC(=O)CCC [hexyl butyrate]	1.13 and 0.814
CC(=O)OC(C)(C)C1CC=C(C)CC1 (configuration not stated) [terpinyl acetate]	1.42
C=C(C)C1CC=CCC1 (configuration not stated) [r-limonene]	0.978
CCCCCCCCCC=O [decyl aldehyde]	1.48
CC(=O)C(C)=O [diacetyl]	1.59
CCCCCCCCOC(C)=O [octyl acetate]	0.958
C=CCc1ccc(O)c(OC)c1 [eugenol]	1.32
CCCCCCCOC(C)=O [heptyl acetate]	1.03 and 1.12

These compounds were tested on OR1E2 C27R clone 1447 in the same assay as above. Conditions: 100 µM.

Structure (SMILES)	odorant receptor activation
CC=Cc1ccc(O)c(OC)c1 [isoeugenol]	1.71
O=C1CCCCCCCCCCCCCCO1 [pentadecalactone]	1.12
CCCCCCC=O [heptaldehyde]	0.989 and 0.888
CC12CCC(CC1)C(C)(C)O2 [cineole]	0.123
O=C1CCCCC1 [Cyclohexanone]	0.74
C=CCSCC=C [diallyl sulfide]	1.17
CC(=O)OC1CC2CCC1(C)C2(C)C (configuration not stated) [isobornyl acetate]	0.788
COC(=O)c1ccccc1O [methyl salicylate]	1.34
COC(=O)c1ccccc1 [methyl benzoate]	0.771
C=CC(C)(O)CCC=C(C)C (configuration not stated) [linalool]	1.15
C=CCc1ccc(OC(C)=O)c(OC)c1 [eugenol acetate]	1.37
CC12C=CCC1C1CCC3CC(=O)CCC3(C)C1CC2 (configuration not stated) [androstenone]	1.08
CC12C=CCC1C1CCC3=CC(=O)CCC3(C)C1CC2 (configuration not stated) [androstadienone]	1.16
CC(C)(C)c1ccc(CCC=O)cc1 [bourgeonal]	0.116
CCCCCCOC(=O)CCC [hexyl butyrate]	0.707
CC1COCc2cc3c(cc21)C(C)(C)C(C)C3(C)C (configuration not stated) [galaxolide]	2.94
CC(=O)c1ccccc1 [acetophenone]	1.12
CC1=NC(C)SC1C (configuration not stated)	1.27
CCCCCOC(C)=O [n-amyl acetate]	0.878
CC(=O)OC(C)(C)C1CC=C(C)CC1 (configuration not stated) [terpinyl acetate]	0.753
C=C(C)C1CC=CCC1 (configuration not stated) [r-limonene]	1.04 and 0.981
CCCCCCCCCC=O [decyl aldehyde]	1.32
CC(=O)C(C)=O [diacetyl]	1.08
CCCCCCCCOC(C)=O [octyl acetate]	1.17
C=CCc1ccc(O)c(OC)c1 [eugenol]	1.42 and 1.32
CCCCCCCOC(C)=O [heptyl acetate]	0.973
CCCCCC(C)=O [2-heptanone]	1.06
